Data taken from PubChem BioAssay AID912, deposited by NCATS (2007).

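A cell-based FRET test of anthrax lethal toxin entry, tracked through the 460 nm emission signal; the cell line is not named here.
Each compound was tested as a concentration series from about 0.0005 to 40 µM.
The number is the fitted AC50 of the 460 nm signal alone; lower values mean a more potent effect. A falling signal goes with compounds filed as inhibitors or cytotoxic, a rising one with activators or fluorescent compounds (inferred from the filed classes).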

Values are in µM.
Common to all entries: measured here: 460 nm channel.
This is a side read-out of the assay, for part of the compounds, not drawn at random.
Potencies fitted to partial, single-point or poorly fitting curves are rough.
The first word of each remark tells which way the curve ran; it can be opposite to the aim of the assay.

{"compound": "COC(=O)c1ccc(CSc2nc3ccccc3c(=O)n2Cc2ccco2)o1", "AC50 (µM)": "12.59", "curve": "falling, partial curve"}
{"compound": "COc1cccc(-c2ccc3ncnc(NCc4ccccc4)c3c2)c1", "AC50 (µM)": "3.981", "curve": "falling, full curve"}
{"compound": "ClC(Cl)(Cl)Cl", "AC50 (µM)": "0.1585", "curve": "falling, full curve, poor fit"}
{"compound": "Fc1cccc(/C=N\\N=C/c2cccc(F)c2)c1", "AC50 (µM)": "15.85", "curve": "falling, partial curve"}
{"compound": "COc1ccccc1CN(CC(=O)NCC1CCCO1)C(=O)CNS(=O)(=O)c1ccc(C)cc1", "stereo": "stereo unspecified", "AC50 (µM)": "31.62", "curve": "rising, single point"}
{"compound": "COc1ccc(N(Cc2cc3ccc(C)cc3[nH]c2=O)C(=O)c2ccco2)cc1", "AC50 (µM)": "3.981", "curve": "rising, partial curve, poor fit"}
{"compound": "CCCOc1ccc(N2C(=O)CC(N3CCC(O)(c4cccc(C(F)(F)F)c4)CC3)C2=O)cc1", "stereo": "stereo unspecified", "AC50 (µM)": "31.62", "curve": "falling, single point"}
{"compound": "COc1ccc(S(=O)(=O)NCCCN2CCOCC2)c2ccccc12", "AC50 (µM)": "19.95", "curve": "rising, single point"}
{"compound": "CCc1nnc(NC(=O)CSc2nnc(-c3c[nH]c4ccccc34)n2C)s1", "AC50 (µM)": "15.85", "curve": "rising, partial curve, poor fit"}
{"compound": "COc1cc(-n2nc(C)c3c2OC(N)=C(C#N)C3c2ccccc2)c(Cl)c(Br)c1O", "stereo": "stereo unspecified", "AC50 (µM)": "12.59", "curve": "falling, single point"}
{"compound": "CCOC(=O)c1cc(C#N)c(SCC(=O)c2cc(C#N)c(SC)nc2C)nc1C", "AC50 (µM)": "5.012", "curve": "rising, single point"}
{"compound": "N#Cc1nc(COc2ccccc2F)oc1NCCc1ccccc1", "AC50 (µM)": "25.12", "curve": "falling, single point"}
{"compound": "Cc1cc(C)c(S(=O)(=O)Nc2ccccc2C(F)(F)F)c(C)c1", "AC50 (µM)": "31.62", "curve": "falling, single point"}
{"compound": "CC(=O)c1ccc(N(C)C)c2c(N(C)C)cccc12", "AC50 (µM)": "31.62", "curve": "falling, partial curve, poor fit"}
{"compound": "NC1CCN(c2cccc(Cl)n2)CC1", "AC50 (µM)": "12.59", "curve": "falling, single point"}
{"compound": "COc1cc(S(=O)(=O)N2CCN(Cc3ccc4c(c3)OCO4)CC2)c(C)cc1C", "AC50 (µM)": "12.59", "curve": "falling, partial curve"}
{"compound": "CCN1c2ccccc2-c2nc3ccccc3n2C1c1cccnc1", "stereo": "stereo unspecified", "AC50 (µM)": "31.62", "curve": "rising, single point"}
{"compound": "O=[N+]([O-])c1cccc2c(Br)[nH]nc12", "AC50 (µM)": "10", "curve": "rising, single point"}
{"compound": "CCCc1cc(C(=O)N2CCN(c3ccccc3C)CC2)cs1", "AC50 (µM)": "10", "curve": "falling, partial curve"}
{"compound": "Nc1nc(SCC(=O)Nc2ccc(Br)cc2F)n[nH]1", "AC50 (µM)": "31.62", "curve": "falling, partial curve, poor fit"}
{"compound": "COC(=O)c1c(NC(=O)CN2CCC(C)CC2)c2c(C)cccc2n1C", "AC50 (µM)": "5.012", "curve": "rising, partial curve"}
{"compound": "c1ccc2c(c1)oc1c(Nc3ccc(CN4CCOCC4)cc3)ncnc12", "AC50 (µM)": "10", "curve": "falling, single point"}
{"compound": "Cc1onc(-c2c(F)cccc2Cl)c1C(=O)Nc1cccc2nsnc12", "AC50 (µM)": "19.95", "curve": "rising, partial curve"}
{"compound": "COc1ccc(CNc2ccnc(-c3ccccc3Cl)n2)c(OC)c1", "AC50 (µM)": "19.95", "curve": "falling, single point"}
{"compound": "O=c1c(-c2ccccc2)nc2cncnc2n1-c1ccccc1", "AC50 (µM)": "19.95", "curve": "rising, partial curve"}
{"compound": "COc1ccc(N2CCN(C(=O)CCNS(=O)(=O)c3ccc4c(c3)CCC(=O)N4)CC2)cc1", "AC50 (µM)": "1", "curve": "falling, partial curve"}
{"compound": "CCOc1ccc(NC(=O)Cn2nnc(C(=O)NCc3ccccc3OC)c2N)cc1", "AC50 (µM)": "0.02512", "curve": "rising, full curve, poor fit"}
{"compound": "Cc1ccccc1-c1nc(CS(=O)(=O)CC(=O)NCc2ccc3c(c2)OCO3)c(C)o1", "AC50 (µM)": "12.59", "curve": "falling, partial curve"}
{"compound": "CN(C)S(=O)(=O)c1ccc2c(c1)/C(=C/c1cc3c([nH]1)CCCC3)C(=O)N2", "AC50 (µM)": "15.85", "curve": "falling, partial curve"}
{"compound": "COc1ccc(CCn2c(=N)c(C(=O)N3CCN(C)CC3)cc3c(=O)n4ccccc4nc32)cc1", "AC50 (µM)": "19.95", "curve": "rising, partial curve, poor fit"}
{"compound": "CN(C)CCCN=c1c2ccccc2n(C)c2[nH]c(=O)n(C)c(=O)c12", "AC50 (µM)": "0.7943", "curve": "falling, single point"}
{"compound": "CN(C)c1ccc(N=Nc2cccc3ccoc23)cc1", "AC50 (µM)": "3.162", "curve": "falling, single point"}
{"compound": "CCCN(CC1CC1)c1nc(C)nc(Nc2c(Cl)cc(Cl)cc2Cl)c1Cl", "AC50 (µM)": "12.59", "curve": "falling, partial curve"}
{"compound": "C[N+]1(C)CCC(OC(=O)C(c2ccccc2)c2ccccc2)CC1", "AC50 (µM)": "12.59", "curve": "falling, single point"}
{"compound": "COc1ccc(C[C@H]2c3cc(OC)c(OC)cc3CCN2C)cc1OC", "AC50 (µM)": "12.59", "curve": "falling, single point"}

2 of the entries, repeated:

compound	AC50 (µM)	curve
COC(=O)c1ccc(CSc2nc3ccccc3c(=O)n2Cc2ccco2)o1	12.59	falling, partial curve
CCOC(=O)c1cc(C#N)c(SCC(=O)c2cc(C#N)c(SC)nc2C)nc1C	5.012	rising, single point